Measurements from the supplement of paper PMC10849652.
The list shows a part of the results. Residues, ends and D or L forms follow the SMILES beside them. *: point of attachment. Cbz = O=C(OCc1ccccc1)*

By UniProt entry, the sequences of proteins in these tests, tags left out. Where a name states a change or a piece, a line headed by the entry shows the natural chain unless it says otherwise.
UniProt Q12986: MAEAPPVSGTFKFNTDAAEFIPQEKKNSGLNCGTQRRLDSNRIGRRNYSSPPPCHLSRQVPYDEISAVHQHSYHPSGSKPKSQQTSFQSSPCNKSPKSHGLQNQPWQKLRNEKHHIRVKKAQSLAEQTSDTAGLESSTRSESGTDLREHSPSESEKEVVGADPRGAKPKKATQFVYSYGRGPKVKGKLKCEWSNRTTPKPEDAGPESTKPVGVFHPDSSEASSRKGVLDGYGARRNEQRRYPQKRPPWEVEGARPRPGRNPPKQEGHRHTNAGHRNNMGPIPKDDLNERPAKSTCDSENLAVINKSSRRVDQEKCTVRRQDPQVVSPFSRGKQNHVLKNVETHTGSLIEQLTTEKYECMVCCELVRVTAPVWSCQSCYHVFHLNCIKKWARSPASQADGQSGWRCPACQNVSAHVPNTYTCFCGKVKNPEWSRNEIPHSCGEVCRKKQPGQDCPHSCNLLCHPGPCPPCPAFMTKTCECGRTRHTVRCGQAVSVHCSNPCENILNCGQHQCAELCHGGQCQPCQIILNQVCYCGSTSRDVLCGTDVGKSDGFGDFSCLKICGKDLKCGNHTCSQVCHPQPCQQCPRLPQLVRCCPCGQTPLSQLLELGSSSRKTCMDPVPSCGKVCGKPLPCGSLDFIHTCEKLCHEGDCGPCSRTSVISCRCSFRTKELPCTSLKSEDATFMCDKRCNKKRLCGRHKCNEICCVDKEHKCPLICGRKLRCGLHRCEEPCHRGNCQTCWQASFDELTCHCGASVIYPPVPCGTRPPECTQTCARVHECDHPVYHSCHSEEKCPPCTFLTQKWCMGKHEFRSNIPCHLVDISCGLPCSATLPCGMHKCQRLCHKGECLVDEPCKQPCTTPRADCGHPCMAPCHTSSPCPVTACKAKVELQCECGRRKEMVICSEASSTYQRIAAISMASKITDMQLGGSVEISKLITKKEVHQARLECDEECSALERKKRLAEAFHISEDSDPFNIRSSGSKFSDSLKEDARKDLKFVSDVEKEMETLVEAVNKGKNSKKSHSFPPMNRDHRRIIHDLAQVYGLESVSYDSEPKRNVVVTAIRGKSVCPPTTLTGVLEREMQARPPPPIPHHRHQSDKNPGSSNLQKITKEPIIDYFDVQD
UniProt Q9Y221: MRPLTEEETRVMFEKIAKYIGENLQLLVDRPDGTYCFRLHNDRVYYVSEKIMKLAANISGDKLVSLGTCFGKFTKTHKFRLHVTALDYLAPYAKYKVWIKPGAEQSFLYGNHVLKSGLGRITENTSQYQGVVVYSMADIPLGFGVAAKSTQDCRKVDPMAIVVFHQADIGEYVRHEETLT
UniProt Q9Y697: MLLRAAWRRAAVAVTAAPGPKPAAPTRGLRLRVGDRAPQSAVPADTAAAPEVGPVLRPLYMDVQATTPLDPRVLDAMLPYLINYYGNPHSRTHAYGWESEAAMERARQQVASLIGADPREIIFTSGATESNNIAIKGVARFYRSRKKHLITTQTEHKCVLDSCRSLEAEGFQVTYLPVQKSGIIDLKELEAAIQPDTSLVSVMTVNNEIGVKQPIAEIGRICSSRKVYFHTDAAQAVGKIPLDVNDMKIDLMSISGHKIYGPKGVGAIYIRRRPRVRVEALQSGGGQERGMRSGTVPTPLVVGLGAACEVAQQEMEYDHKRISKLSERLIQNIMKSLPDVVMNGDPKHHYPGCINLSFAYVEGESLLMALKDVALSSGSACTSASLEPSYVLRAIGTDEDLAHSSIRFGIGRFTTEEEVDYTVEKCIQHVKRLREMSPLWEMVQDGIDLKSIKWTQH
UniProt Q8NC60: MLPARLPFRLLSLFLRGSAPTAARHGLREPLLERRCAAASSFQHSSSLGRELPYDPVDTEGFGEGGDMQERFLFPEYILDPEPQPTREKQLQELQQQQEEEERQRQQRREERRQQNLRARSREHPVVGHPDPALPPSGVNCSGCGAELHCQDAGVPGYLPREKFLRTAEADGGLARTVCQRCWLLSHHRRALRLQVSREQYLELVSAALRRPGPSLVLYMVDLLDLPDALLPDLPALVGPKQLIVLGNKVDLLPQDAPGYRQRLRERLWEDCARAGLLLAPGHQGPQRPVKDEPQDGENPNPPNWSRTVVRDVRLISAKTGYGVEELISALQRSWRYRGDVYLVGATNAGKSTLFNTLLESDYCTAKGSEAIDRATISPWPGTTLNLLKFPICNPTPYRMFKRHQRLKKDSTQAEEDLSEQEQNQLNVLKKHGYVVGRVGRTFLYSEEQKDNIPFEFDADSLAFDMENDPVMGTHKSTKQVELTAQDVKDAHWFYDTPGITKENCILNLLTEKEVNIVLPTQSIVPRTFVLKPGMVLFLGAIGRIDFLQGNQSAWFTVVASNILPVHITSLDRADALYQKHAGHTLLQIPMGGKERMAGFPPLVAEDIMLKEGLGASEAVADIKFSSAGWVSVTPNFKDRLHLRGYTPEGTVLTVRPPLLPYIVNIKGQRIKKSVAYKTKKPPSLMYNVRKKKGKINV
UniProt Q15738: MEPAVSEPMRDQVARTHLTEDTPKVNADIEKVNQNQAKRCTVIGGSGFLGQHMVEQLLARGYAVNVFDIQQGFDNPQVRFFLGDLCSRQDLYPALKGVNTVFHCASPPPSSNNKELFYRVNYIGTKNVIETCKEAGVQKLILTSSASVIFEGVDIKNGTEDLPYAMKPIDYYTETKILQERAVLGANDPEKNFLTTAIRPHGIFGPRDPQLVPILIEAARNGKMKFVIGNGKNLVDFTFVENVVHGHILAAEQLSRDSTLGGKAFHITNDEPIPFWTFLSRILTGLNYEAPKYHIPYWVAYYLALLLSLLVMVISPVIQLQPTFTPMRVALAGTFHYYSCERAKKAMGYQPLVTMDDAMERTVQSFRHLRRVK
UniProt Q86WQ0: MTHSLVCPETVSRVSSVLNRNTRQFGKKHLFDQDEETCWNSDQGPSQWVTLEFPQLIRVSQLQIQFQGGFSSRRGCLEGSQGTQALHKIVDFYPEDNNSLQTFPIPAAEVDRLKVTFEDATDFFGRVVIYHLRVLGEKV
UniProt Q15233: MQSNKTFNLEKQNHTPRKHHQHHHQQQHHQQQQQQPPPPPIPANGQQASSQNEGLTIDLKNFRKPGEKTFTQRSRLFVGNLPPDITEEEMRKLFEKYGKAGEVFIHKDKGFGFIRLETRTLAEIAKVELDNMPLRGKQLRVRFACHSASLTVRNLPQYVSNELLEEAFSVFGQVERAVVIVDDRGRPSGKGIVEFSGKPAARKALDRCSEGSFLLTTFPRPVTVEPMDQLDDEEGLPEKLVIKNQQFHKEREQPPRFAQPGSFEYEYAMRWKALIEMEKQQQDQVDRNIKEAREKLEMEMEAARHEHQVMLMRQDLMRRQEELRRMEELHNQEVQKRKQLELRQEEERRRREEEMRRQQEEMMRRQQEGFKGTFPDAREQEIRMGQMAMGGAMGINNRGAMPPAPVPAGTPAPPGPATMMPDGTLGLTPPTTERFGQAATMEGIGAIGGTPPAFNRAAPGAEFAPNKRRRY
UniProt Q8NBF2: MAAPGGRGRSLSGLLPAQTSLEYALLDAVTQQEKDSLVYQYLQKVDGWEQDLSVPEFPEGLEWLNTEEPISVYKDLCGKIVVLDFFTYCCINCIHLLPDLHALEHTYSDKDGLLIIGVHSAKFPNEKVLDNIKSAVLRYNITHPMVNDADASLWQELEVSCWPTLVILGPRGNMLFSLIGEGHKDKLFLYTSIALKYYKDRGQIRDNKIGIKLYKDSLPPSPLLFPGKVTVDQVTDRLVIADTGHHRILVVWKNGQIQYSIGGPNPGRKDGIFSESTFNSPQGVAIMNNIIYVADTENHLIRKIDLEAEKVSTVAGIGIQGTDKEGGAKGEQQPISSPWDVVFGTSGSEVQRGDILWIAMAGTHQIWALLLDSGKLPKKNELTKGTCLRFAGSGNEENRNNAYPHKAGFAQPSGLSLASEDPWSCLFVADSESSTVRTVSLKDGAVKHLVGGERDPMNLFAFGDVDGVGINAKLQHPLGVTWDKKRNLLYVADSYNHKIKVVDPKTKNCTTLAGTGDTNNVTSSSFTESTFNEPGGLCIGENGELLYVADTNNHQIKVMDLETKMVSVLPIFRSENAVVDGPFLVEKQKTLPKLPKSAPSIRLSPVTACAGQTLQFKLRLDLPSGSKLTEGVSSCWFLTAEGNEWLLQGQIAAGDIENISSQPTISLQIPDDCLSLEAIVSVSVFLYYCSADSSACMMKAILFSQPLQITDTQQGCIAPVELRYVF
UniProt Q9Y5B8, whole entry, looked up: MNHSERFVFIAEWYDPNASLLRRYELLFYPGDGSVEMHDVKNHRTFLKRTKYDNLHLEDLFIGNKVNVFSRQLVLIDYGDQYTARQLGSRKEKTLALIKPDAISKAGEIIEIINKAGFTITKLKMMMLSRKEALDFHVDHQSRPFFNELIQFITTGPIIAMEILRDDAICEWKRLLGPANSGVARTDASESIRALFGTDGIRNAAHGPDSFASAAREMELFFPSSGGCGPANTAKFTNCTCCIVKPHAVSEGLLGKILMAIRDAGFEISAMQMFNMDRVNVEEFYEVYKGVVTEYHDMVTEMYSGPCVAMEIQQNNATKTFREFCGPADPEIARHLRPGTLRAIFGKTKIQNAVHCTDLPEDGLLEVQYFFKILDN
UniProt Q16656: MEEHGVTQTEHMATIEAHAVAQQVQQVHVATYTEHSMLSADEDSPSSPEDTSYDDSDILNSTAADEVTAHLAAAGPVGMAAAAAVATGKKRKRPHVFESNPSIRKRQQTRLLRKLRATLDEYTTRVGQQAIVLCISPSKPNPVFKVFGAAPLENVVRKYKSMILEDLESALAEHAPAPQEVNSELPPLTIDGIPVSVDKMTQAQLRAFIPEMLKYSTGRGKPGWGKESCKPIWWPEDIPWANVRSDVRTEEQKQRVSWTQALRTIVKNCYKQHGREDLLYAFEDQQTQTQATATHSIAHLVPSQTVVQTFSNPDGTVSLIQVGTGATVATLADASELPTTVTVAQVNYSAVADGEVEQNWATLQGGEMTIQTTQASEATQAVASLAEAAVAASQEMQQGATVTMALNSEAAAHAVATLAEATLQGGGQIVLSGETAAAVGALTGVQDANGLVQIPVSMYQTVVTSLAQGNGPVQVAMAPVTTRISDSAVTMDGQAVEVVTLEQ
UniProt Q9Y314: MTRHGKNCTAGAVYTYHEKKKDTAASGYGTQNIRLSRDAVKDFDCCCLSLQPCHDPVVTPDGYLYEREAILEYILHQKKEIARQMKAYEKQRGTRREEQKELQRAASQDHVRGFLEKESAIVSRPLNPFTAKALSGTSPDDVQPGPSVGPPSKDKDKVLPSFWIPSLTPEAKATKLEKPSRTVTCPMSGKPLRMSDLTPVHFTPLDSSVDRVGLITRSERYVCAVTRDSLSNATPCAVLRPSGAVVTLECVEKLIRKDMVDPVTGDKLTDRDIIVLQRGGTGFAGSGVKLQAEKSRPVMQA
UniProt Q14978: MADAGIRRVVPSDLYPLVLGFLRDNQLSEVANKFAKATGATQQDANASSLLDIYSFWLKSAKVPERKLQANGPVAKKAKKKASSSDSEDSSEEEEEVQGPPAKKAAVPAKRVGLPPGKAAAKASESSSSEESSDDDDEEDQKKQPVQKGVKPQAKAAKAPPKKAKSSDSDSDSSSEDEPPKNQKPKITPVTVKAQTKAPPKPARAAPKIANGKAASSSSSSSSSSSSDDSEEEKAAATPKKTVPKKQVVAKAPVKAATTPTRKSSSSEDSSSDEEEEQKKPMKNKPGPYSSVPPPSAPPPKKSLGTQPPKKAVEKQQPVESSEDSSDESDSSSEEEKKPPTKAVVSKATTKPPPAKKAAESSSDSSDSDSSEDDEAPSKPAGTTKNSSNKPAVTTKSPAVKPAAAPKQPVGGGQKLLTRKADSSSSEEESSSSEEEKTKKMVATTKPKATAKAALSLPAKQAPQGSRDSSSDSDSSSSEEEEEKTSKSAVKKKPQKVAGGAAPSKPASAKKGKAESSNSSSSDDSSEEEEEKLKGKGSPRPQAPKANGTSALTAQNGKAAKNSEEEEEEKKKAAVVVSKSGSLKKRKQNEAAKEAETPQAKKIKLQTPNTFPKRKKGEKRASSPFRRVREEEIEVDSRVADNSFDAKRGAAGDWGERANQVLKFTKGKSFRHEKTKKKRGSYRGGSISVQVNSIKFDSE
UniProt O14524: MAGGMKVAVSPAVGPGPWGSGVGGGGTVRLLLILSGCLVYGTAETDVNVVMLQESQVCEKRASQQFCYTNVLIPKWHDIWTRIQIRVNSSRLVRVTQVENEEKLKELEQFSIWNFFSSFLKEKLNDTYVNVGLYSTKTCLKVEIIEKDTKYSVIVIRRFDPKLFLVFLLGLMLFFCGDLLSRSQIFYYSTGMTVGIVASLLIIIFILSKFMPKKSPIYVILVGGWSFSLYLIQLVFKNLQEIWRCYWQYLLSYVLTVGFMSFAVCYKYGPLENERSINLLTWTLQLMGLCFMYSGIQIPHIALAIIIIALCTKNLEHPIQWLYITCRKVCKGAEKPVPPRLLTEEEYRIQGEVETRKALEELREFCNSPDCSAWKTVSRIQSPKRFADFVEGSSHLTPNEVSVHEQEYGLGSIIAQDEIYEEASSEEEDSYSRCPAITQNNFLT

Legend:
Assay in all cases: log2 fold change, soluble protein after heating vs DMSO (PISA); higher = thermal stabilisation; K562 cells, 10 uM, 30 min; active = over 0.2 and 3.5 SD of the protein, either way, in both replicates (recomputed)
IRAK-1-4 Inhibitor I = compound: C1COCCN1CCN2C3=CC=CC=C3N=C2NC(=O)C4=CC(=CC=C4)[N+](=O)[O-] [IRAK-1-4 Inhibitor I]
Summary of the method: (§1)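 Aliquots of K562 cells (2×10^6 cells/mL) treated with 10 μM compound for 30 min were heated for 3 min over 48°C-58°C. After pooling and extraction in PBS with 0.5% NP-40 at 4°C, soluble protein from a 21,000xg, 90 min spin was quantified by TMTpro 16plex LC-MS/MS with channel sums equalised. Thermal stability is expressed against control samples, from duplicates, as a log2 fold change.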

ibrutinib = compound: C=CC(=O)N1CCC[C@@H](n2nc(-c3ccc(Oc4ccccc4)cc3)c3c(N)ncnc32)C1 [ibrutinib]
Summary of the method: as §1

[1] = compound: CC(=O)c1cnc2ccc(-c3cc(Cl)c(O)c(Cl)c3)nc2c1N[C@H]1CC[C@H](CN(C)C)CC1
Summary of the method: as §1

ralimetinib = compound: CC(C)(C)Cn1c(N)nc2ccc(-c3[nH]c(C(C)(C)C)nc3-c3ccc(F)cc3)nc21 [ralimetinib]
Summary of the method: as §1

[2] = compound: CC(C)(O)CC(=O)NCCn1ccc2ncnc(Nc3ccc(Oc4cccc(C(F)(F)F)c4)c(Cl)c3)c21
Summary of the method: as §1

[3] = compound: CC(C)C1=C2N=C(C=C(N2N=C1)NCC3=CC=CC=C3)NCCCCCCN
Summary of the method: as §1

[4] = compound: CC(C)C[C@@H](C=O)NC(=O)[C@H](CC(C)C)NC(=O)[C@H](CC(C)C)NC(=O)OCc1ccccc1
Summary of the method: as §1

pinometostat = compound: CC(C)N(C[C@H]1O[C@@H](n2cnc3c(N)ncnc32)[C@H](O)[C@@H]1O)[C@H]1C[C@@H](CCc2nc3cc(C(C)(C)C)ccc3[nH]2)C1 [pinometostat]
Summary of the method: as §1

[5] = compound: CC1=C(C(CC(=O)N1)C2=CC=C(C=C2)C(F)(F)F)C(=O)NC3=C(C=C4C(=C3)C=NN4)F
Summary of the method: as §1

[6] = compound: CC1=C(C2=C(C=C1)C(=O)C3=CC=CC=C3N2CCCN)C
Summary of the method: as §1

Row | Target | log2 fold change (IRAK-1-4 Inhibitor I) | log2 fold change (ibrutinib) | log2 fold change [1] | log2 fold change (ralimetinib) | log2 fold change [2] | log2 fold change [3] | log2 fold change [4] | log2 fold change (pinometostat) | log2 fold change [5] | log2 fold change [6]
1 | NRBP1 (UniProt Q9UHY1) | inactive: -0.003 | inactive: 0.008 | inactive: 0.008 | inactive: -0.047 | inactive: 0 | inactive: 0.013 | inactive: -0.009 | inactive: -0.014 | inactive: -0.011 | inactive: 0.012
2 | NSMAF (UniProt Q92636) | inactive: 0.03 | inactive: 0.014 | inactive: 0.021 | inactive: 0.004 | inactive: -0.003 | inactive: -0.008 | inactive: -0.008 | inactive: 0.01 | inactive: -0.007 | inactive: -0.038
3 | NISCH (UniProt Q9Y2I1) | inactive: 0.053 | inactive: 0 | inactive: -0.037 | inactive: 0.02 | inactive: 0.007 | inactive: -0.429 | inactive: 0.028 | inactive: 0.047 | – | inactive: 0.004
4 | NFX1 (UniProt Q12986) | inactive: -0.028 | inactive: 0.083 | inactive: -0.002 | inactive: 0.178 | inactive: 0.099 | inactive: -0.051 | inactive: 0.227 | inactive: 0.182 | – | inactive: -0.043
5 | NOB1 (UniProt Q9ULX3) | inactive: -0.062 | inactive: -0.025 | inactive: -0.083 | active: 0.288 | inactive: -0.033 | inactive: -0.15 | inactive: 0.053 | inactive: 0.068 | – | inactive: -0.031
6 | NFYA (UniProt P23511) | inactive: 0.19 | inactive: 0.064 | inactive: 0.037 | inactive: 0.026 | inactive: -0.009 | inactive: 0.024 | inactive: 0.061 | inactive: -0.023 | inactive: -0.041 | inactive: 0.331
7 | NIP7 (UniProt Q9Y221) | inactive: 0 | inactive: 0.069 | inactive: 0.151 | inactive: 0.099 | inactive: 0.066 | inactive: 0.166 | inactive: 0.077 | inactive: 0.266 | inactive: -0.063 | inactive: 0
8 | NFS1 (UniProt Q9Y697) | inactive: 0.027 | inactive: -0.012 | inactive: -0.035 | inactive: -0.033 | inactive: -0.052 | inactive: 0.041 | inactive: -0.024 | inactive: -0.057 | inactive: -0.05 | inactive: 0.014
9 | NOA1 (UniProt Q8NC60) | inactive: -0.111 | inactive: 0.003 | inactive: -0.108 | inactive: 0.081 | inactive: 0 | inactive: -0.142 | inactive: 0.21 | inactive: 0.105 | inactive: 0.038 | inactive: 0.009
10 | NGLY1 (UniProt Q96IV0) | inactive: -0.091 | inactive: -0.052 | inactive: -0.059 | inactive: 0.018 | inactive: -0.07 | inactive: -0.071 | inactive: 0.036 | inactive: 0.088 | – | inactive: 0.123
11 | NIPSNAP2 (UniProt O75323) | inactive: 0.018 | inactive: 0.115 | inactive: -0.084 | inactive: -0.054 | inactive: 0.049 | inactive: 0.014 | inactive: -0.015 | inactive: -0.034 | – | inactive: 0.031
12 | NSDHL (UniProt Q15738) | inactive: 0.004 | inactive: 0.193 | inactive: -0.049 | inactive: -0.01 | inactive: 0.173 | inactive: -0.084 | inactive: -0.024 | inactive: -0.078 | – | inactive: 0.056
13 | NR2C2AP isoform 2 (UniProt Q86WQ0) | inactive: -0.126 | inactive: -0.003 | inactive: -0.062 | inactive: -0.056 | inactive: 0.012 | inactive: 0.01 | inactive: -0.026 | inactive: -0.073 | – | inactive: 0.063
14 | NOL11 (UniProt Q9H8H0) | inactive: 0.036 | inactive: 0.031 | inactive: 0.002 | inactive: -0.028 | inactive: 0.037 | inactive: 0.21 | inactive: -0.017 | inactive: -0.014 | – | active: 0.304
15 | NONO (UniProt Q15233) | inactive: -0.162 | inactive: -0.037 | inactive: -0.075 | inactive: 0.126 | inactive: -0.017 | inactive: -0.286 | inactive: 0.271 | inactive: 0.166 | inactive: 0.027 | inactive: -0.132
16 | NHLRC2 (UniProt Q8NBF2) | inactive: 0.039 | inactive: 0.07 | inactive: -0.02 | inactive: -0.122 | inactive: -0.026 | inactive: -0.124 | inactive: 0.143 | inactive: 0.013 | – | inactive: 0.023
17 | NRBF2 (UniProt Q96F24) | inactive: 0.007 | inactive: -0.009 | inactive: 0.002 | inactive: -0.04 | inactive: 0.004 | inactive: 0.016 | inactive: 0.005 | inactive: -0.01 | inactive: -0.001 | inactive: 0.022
18 | NME7 (UniProt Q9Y5B8) | inactive: 0.056 | inactive: -0.054 | inactive: -0.038 | inactive: 0.095 | inactive: -0.116 | inactive: -0.066 | inactive: 0.059 | inactive: 0.065 | – | inactive: -0.086
19 | NRF1 isoform 4 (UniProt Q16656) | inactive: -0.014 | inactive: -0.007 | inactive: -0.059 | inactive: 0.024 | inactive: 0.082 | inactive: -0.125 | inactive: -0.025 | inactive: -0.004 | – | active: -0.419
20 | NOSIP (UniProt Q9Y314) | inactive: -0.401 | inactive: -0.032 | inactive: -0.033 | inactive: -0.065 | inactive: -0.135 | inactive: -0.106 | inactive: -0.039 | inactive: 0.085 | – | inactive: 0.186
21 | NSD3 (UniProt Q9BZ95) | inactive: 0.122 | inactive: -0.024 | inactive: 0.072 | – | inactive: -0.018 | inactive: 0.072 | – | inactive: 0.057 | – | inactive: 0.066
22 | NSD1 (UniProt Q96L73) | inactive: 0.014 | inactive: -0.029 | inactive: 0.088 | – | – | inactive: -0.071 | – | inactive: -0.029 | inactive: 0.003 | –
23 | NSL1 (UniProt Q96IY1) | inactive: -0.069 | inactive: -0.019 | inactive: -0.045 | inactive: 0.038 | – | inactive: -0.095 | inactive: 0.023 | inactive: -0.093 | inactive: -0.057 | inactive: -0.166
24 | NOLC1 isoform 2 (UniProt Q14978) | inactive: -0.057 | inactive: -0.089 | active: -0.305 | inactive: 0.041 | inactive: 0.021 | inactive: -0.015 | inactive: -0.086 | inactive: -0.011 | – | active: -1.4
25 | NIPBL (UniProt Q6KC79) | inactive: 0.016 | inactive: -0.229 | inactive: 0.158 | – | inactive: 0.091 | inactive: -0.291 | – | inactive: 0.108 | – | inactive: 0.166
26 | NEMP1 (UniProt O14524) | inactive: 0.003 | inactive: -0.01 | inactive: -0.081 | inactive: -0.03 | inactive: -0.023 | active: -0.508 | inactive: 0.08 | inactive: 0.009 | – | inactive: -0.119
27 | NR2C1 (UniProt P13056) | inactive: 0.031 | inactive: -0.021 | inactive: -0.076 | – | inactive: -0.035 | – | – | inactive: 0.227 | inactive: -0.026 | –
28 | NR2C2 isoform 2 (UniProt P49116) | inactive: 0.004 | inactive: 0.022 | inactive: -0.062 | inactive: -0.064 | inactive: -0.048 | inactive: -0.004 | inactive: 0.058 | inactive: 0.014 | – | inactive: -0.215

Exported tab-delimited: entries from further up
Row	Target	log2 fold change (IRAK-1-4 Inhibitor I)	log2 fold change (ibrutinib)	log2 fold change [1]	log2 fold change (ralimetinib)	log2 fold change [2]	log2 fold change [3]	log2 fold change [4]	log2 fold change (pinometostat)	log2 fold change [5]	log2 fold change [6]
9	NOA1 (UniProt Q8NC60)	inactive: -0.111	inactive: 0.003	inactive: -0.108	inactive: 0.081	inactive: 0	inactive: -0.142	inactive: 0.21	inactive: 0.105	inactive: 0.038	inactive: 0.009
10	NGLY1 (UniProt Q96IV0)	inactive: -0.091	inactive: -0.052	inactive: -0.059	inactive: 0.018	inactive: -0.07	inactive: -0.071	inactive: 0.036	inactive: 0.088	–	inactive: 0.123
